# The other results are listed elsewhere or left out. The data scatter; read single values as rough.
# Amino acid sequences for entries named in this document (tags omitted). A change or cut given only in a name is not applied to a line headed by its entry. Residues count along the entry.
# UniProt Q14573, whole entry, looked up: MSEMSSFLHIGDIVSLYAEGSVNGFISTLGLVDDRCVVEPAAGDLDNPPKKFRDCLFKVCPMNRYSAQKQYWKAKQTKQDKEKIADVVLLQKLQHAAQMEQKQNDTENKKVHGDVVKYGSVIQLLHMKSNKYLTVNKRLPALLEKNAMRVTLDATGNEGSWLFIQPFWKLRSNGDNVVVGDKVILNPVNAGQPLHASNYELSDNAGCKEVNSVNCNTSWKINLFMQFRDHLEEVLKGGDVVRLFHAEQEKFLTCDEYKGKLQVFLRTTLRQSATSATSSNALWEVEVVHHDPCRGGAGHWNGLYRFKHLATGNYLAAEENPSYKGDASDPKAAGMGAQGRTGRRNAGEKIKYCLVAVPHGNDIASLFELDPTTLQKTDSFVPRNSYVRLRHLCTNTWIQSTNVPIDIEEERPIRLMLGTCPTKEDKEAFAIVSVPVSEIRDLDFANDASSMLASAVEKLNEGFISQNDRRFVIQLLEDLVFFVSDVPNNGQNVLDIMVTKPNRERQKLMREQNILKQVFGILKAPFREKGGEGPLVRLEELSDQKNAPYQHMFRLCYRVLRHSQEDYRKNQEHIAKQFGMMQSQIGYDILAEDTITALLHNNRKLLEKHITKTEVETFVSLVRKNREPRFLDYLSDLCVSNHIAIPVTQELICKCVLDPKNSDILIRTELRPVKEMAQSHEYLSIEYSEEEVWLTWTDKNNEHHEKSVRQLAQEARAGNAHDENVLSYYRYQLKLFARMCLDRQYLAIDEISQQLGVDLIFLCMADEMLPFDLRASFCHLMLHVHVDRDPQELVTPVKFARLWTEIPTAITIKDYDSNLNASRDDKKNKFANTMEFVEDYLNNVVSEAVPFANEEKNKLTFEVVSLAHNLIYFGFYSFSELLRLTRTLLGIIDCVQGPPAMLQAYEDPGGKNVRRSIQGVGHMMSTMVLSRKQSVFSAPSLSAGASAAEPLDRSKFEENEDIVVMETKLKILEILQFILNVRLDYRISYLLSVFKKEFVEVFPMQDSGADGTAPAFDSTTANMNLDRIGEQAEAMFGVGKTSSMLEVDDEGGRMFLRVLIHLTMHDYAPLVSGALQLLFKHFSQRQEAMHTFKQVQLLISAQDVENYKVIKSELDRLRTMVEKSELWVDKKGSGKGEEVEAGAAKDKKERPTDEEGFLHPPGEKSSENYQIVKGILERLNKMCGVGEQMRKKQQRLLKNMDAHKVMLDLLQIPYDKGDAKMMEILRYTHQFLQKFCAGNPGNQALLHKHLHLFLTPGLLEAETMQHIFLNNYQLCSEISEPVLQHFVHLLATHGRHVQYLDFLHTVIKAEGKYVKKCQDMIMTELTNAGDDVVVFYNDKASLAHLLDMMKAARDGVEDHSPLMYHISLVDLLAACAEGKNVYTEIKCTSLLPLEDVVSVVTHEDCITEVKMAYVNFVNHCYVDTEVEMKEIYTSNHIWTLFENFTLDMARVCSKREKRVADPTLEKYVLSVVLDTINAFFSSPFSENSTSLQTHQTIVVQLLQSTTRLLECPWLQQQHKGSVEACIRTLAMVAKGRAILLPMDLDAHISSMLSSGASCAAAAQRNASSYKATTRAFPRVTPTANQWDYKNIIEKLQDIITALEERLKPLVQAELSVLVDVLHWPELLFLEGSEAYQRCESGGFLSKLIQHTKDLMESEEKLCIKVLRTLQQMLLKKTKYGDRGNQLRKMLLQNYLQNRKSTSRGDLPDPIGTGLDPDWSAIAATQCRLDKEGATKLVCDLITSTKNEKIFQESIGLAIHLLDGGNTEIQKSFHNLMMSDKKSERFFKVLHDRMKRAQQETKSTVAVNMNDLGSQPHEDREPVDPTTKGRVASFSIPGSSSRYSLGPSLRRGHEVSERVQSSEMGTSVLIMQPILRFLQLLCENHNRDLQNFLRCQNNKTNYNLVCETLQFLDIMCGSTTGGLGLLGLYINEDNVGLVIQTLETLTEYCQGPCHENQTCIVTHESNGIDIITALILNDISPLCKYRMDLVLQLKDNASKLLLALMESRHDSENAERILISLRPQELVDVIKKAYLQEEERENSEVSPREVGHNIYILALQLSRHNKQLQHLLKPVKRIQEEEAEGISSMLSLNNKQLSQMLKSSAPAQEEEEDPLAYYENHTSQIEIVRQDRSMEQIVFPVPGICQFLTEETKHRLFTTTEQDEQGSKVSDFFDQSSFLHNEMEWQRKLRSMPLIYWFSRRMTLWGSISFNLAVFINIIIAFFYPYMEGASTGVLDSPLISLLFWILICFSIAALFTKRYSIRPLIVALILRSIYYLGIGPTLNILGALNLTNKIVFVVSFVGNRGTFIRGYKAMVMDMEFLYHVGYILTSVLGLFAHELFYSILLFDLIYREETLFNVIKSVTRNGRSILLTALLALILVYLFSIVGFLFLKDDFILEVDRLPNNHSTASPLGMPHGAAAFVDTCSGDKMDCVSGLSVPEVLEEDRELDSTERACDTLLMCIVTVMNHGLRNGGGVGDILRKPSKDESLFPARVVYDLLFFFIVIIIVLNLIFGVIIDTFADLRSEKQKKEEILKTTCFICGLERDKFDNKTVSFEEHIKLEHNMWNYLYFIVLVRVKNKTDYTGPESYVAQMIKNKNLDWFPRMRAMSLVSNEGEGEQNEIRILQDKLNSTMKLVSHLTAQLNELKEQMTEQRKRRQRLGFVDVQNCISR
# UniProt Q9ULH0: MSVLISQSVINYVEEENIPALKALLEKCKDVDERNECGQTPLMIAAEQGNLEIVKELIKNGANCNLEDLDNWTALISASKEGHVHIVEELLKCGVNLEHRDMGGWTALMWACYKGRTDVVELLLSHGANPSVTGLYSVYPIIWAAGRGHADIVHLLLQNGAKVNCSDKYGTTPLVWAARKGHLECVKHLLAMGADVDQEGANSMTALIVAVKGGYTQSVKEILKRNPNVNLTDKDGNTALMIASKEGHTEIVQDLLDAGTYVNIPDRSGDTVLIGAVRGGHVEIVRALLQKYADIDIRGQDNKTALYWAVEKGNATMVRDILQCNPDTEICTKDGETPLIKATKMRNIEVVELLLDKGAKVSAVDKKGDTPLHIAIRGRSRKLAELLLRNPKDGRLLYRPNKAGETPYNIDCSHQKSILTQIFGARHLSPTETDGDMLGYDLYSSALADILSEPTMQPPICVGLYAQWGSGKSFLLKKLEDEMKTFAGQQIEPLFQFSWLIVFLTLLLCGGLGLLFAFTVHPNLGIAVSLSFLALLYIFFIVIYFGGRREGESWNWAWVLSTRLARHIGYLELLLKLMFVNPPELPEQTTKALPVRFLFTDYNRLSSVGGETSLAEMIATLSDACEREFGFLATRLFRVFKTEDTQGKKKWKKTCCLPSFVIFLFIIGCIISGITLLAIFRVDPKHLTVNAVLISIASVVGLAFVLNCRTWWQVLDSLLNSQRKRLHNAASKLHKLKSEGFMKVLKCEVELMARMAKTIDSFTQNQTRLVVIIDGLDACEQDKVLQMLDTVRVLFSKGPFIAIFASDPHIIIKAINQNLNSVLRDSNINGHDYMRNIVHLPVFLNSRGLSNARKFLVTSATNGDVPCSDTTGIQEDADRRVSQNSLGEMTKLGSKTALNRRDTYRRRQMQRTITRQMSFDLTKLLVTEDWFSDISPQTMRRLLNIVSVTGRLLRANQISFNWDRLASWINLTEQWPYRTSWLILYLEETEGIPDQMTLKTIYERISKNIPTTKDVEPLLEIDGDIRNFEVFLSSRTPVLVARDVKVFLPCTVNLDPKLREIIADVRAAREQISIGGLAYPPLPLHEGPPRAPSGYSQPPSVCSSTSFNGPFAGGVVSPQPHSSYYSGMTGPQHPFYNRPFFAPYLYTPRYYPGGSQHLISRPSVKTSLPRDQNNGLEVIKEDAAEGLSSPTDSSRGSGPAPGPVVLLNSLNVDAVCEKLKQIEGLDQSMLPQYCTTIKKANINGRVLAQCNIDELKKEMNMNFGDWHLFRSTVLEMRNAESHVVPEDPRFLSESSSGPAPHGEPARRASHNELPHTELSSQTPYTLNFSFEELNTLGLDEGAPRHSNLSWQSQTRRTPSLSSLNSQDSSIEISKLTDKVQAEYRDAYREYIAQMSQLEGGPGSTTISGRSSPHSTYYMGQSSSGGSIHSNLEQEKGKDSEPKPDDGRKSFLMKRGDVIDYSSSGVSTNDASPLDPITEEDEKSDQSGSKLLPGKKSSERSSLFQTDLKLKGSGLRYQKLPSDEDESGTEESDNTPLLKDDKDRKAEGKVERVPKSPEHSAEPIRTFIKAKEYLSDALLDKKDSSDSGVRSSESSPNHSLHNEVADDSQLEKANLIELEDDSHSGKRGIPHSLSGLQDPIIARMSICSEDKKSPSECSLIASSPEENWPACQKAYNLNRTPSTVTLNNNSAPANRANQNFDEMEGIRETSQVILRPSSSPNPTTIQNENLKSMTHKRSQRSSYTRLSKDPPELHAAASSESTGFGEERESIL
# UniProt Q9Y4C1, 233-256: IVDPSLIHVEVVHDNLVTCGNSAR
# UniProt Q8IYS2: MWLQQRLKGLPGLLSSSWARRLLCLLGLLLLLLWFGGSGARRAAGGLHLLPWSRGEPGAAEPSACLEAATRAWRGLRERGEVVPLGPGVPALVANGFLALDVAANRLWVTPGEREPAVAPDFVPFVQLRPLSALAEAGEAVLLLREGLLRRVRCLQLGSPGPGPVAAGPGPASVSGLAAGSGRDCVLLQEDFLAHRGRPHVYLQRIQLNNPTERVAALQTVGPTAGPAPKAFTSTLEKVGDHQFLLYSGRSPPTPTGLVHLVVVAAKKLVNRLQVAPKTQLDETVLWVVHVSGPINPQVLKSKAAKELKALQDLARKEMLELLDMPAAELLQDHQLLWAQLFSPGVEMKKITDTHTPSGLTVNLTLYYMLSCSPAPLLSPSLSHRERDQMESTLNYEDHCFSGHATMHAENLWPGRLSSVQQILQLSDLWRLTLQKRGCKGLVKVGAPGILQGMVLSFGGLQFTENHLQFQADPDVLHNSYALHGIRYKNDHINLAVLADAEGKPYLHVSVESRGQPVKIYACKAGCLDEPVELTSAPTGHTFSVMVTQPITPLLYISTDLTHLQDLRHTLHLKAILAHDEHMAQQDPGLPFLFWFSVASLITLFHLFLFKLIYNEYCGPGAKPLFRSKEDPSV
# UniProt Q96L93: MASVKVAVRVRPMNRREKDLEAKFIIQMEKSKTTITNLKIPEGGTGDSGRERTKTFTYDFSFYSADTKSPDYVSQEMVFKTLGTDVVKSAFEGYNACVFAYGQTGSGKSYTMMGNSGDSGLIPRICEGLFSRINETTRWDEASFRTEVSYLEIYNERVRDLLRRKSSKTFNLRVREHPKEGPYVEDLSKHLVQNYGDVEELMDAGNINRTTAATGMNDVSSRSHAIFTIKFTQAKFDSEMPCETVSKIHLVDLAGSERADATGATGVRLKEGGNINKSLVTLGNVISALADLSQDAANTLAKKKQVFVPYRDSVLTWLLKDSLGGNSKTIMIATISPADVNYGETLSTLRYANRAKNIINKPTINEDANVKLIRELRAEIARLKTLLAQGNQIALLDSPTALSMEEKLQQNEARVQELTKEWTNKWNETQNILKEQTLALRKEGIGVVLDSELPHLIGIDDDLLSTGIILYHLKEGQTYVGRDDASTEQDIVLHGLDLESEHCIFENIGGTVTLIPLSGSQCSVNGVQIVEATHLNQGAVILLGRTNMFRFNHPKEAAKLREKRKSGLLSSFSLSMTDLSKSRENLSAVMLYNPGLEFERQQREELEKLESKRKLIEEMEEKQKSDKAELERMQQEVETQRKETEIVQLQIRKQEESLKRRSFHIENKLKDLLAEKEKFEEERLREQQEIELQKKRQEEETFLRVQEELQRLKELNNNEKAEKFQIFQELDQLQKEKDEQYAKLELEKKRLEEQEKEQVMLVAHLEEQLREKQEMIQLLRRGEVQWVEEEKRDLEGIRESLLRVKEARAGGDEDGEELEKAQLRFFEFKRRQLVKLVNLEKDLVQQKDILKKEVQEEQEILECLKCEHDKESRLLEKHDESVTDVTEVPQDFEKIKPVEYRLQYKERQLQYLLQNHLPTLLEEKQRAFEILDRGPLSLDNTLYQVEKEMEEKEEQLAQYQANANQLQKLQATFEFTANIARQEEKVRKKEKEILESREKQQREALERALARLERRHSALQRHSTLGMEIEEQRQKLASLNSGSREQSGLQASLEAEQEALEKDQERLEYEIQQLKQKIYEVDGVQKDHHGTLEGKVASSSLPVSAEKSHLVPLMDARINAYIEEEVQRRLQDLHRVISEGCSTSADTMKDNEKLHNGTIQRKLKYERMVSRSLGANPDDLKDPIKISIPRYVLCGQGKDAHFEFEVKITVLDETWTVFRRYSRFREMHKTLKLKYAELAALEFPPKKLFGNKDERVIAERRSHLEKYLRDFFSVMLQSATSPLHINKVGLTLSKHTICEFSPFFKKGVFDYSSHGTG
# UniProt O94854, 365-384: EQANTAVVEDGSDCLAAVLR
# UniProt Q9Y2K7, 707-733: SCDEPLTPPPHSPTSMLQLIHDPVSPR
# Assays:
# [1] = compound: ClCC(=O)N[C@@H]1CCCc2ccccc12; assay: log2 mean competition ratio of IA-DTB cysteine labelling (DMSO/compound) (log2 ratio); higher = stronger cysteine engagement by compound; conditions: treatment time: 4 h, cell line lysate: HEK293T
# Method: (§1)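 IA-DTB competitive cysteine chemoproteomics in HEK293T RIPA lysate. Lysates were treated with compound 29 or 30 at 50 or 200 µM for 4 h, then IA-DTB (500 µM, 1 h), trypsin-digested, NeutrAvidin-enriched and analysed by diaPASEF. Competition ratio = intensity DMSO / intensity compound (n=4 treated, n=64 DMSO); binding: mean log2 CR ≥ 1 and p ≤ 0.05 plus QC filters. Target is the cysteine site.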
# [2] = compound: ClCC(=O)N[C@H]1CCCc2ccccc12; assay: as above; conditions: treatment time: 4 h, cell line lysate: HEK293T
# Method: as §1
Target,log2 mean competition ratio ([1]; 50 µM),log2 mean competition ratio ([1]; 200 µM),log2 mean competition ratio ([2]; 50 µM),log2 mean competition ratio ([2]; 200 µM)
ITPR3 C1638 (UniProt Q14573),-0.0965,0.0414,0.145,0.0578
KIDINS220 C412 (UniProt Q9ULH0),-0.122,-0.047,-0.197,-0.0182
KDM3A C852 (UniProt Q9Y4C1),-0.047,-0.0852,-0.337,-0.00266
KDM3A C349 (UniProt Q9Y4C1),-0.373,0.248,-0.177,0.362
KIF1A C1508,0.0654,0.0634,0.516,0.174
KBTBD11 C537 (UniProt O94819),-0.343,-0.27,-0.0383,-0.0103
ITPR3 C420 (UniProt Q14573),0.317,-0.443,0.557,-0.223
KATNAL1 C7 (UniProt Q9BW62),0.165,0.0316,-0.00468,0.413
KIF1B C356 (UniProt O60333),-0.0875,-0.0688,-0.22,-0.0391
KIAA1107 C252,-0.0541,-0.0145,-0.0496,0.291
KAT2A C815 (UniProt Q92830),0.195,0.149,0.065,0.165
KIF20A C332 (UniProt O95235),0.138,0.0296,-0.258,0.0183
KANK1 C1072 (UniProt Q14678),-0.447,0.0814,-1.27,-0.233
ITGA4 C861 (UniProt P13612),0.066,0.323,0.168,0.536
KAT7 C602 (UniProt O95251),-0.13,-0.0332,0.19,0.115
KIF1A C1645,-0.14,0.0561,-0.176,0.0436
KIAA1109 C626 (UniProt Q2LD37),-0.0421,0.072,-0.478,0.124
KIAA2013 C185 (UniProt Q8IYS2),-0.0597,0.339,-0.358,0.162
KIDINS220 C1646 (UniProt Q9ULH0),0.00145,0.119,0.421,0.23
KBTBD11 C99 (UniProt O94819),-0.256,0.0618,-0.147,-0.128
ITPR2 C420 (UniProt Q14571),-0.0339,-0.0785,-0.0693,-0.22
KCTD5 C25 (UniProt Q9NXV2),0.2,0.0692,0.0316,0.0773

# Looked up one by one from the list above, 2 records:
Target,log2 mean competition ratio ([1]; 50 µM),log2 mean competition ratio ([1]; 200 µM),log2 mean competition ratio ([2]; 50 µM),log2 mean competition ratio ([2]; 200 µM)
KATNAL1 C7 (UniProt Q9BW62),0.165,0.0316,-0.00468,0.413
KIAA1107 C252,-0.0541,-0.0145,-0.0496,0.291

# (listing goes on)

Target,log2 mean competition ratio ([1]; 50 µM),log2 mean competition ratio ([1]; 200 µM),log2 mean competition ratio ([2]; 50 µM),log2 mean competition ratio ([2]; 200 µM)
KDM3A C225 (UniProt Q9Y4C1),-0.226,-0.181,-0.396,-0.0637
KIF18A C9,-0.0989,-0.0564,-0.365,-0.114
KIF20A C778 (UniProt O95235),-0.393,0.41,-0.503,0.12
KIF11 C450 (UniProt P52732),-0.302,0.134,-0.644,-0.0276
IRS4 C257,0.61,0.026,0.448,-0.264
IRF2 C83 (UniProt P14316),-0.0959,0.158,-0.547,0.163
ITPR2 C214 (UniProt Q14571),-0.175,-0.411,0.254,0.0881
KIDINS220 C1250 (UniProt Q9ULH0),-0.0214,-0.0913,-0.379,-0.185
KIF16B C863 (UniProt Q96L93),-0.367,0.269,-0.353,0.395
KDM3A C251 (UniProt Q9Y4C1),0.0386,0.276,-0.233,0.0465
KDM7A C492,0.0372,0.05,-0.0933,-0.053
KIF20B C480 (UniProt Q96Q89),-0.089,-0.0497,-0.191,-0.259
KIAA0754 C242 (UniProt O94854),-0.204,0.434,0.104,0.00627
KIF21A C652,-0.334,-0.233,-0.255,-0.227
KIF23 C759 (UniProt Q02241),-0.0178,0.246,0.108,0.28
KCNK1 C69 (UniProt O00180),0.54,0.183,-0.279,-0.151
KIAA1586 C281 (UniProt Q9HCI6),-0.259,-0.0325,0.0221,0.387
IRS4 C658,0.21,0.279,0.0978,0.314
ISYNA1 C485 (UniProt Q9NPH2),0.127,0.36,0.591,0.532
KHSRP C436,0.412,-0.0491,0.771,0.0976
KDM2A C708 (UniProt Q9Y2K7),0.376,0.111,0.105,-0.00394

# — the supplement of paper PMC11732987, “Enantioselective OTUD7B fragment discovery through chemoproteomics screening and high-throughput optimisation” (Communications Chemistry, 2025)
